EP0067666A1, “Salts of antimicrobial naphthyridine and quinoline compounds and their production” (priority 1981, dated 1982)
At least one read-out could not be matched to a standard name with certainty.

Experiment: Solubility of lyophilized and crystalline solids
Assay type: physicochemical
Settings: for Conc. of CPD A mg/ml Cryst. / Conc. of CPD B mg/ml Cryst.: crystalline solid; for Conc. of CPD A mg/ml Cryst. / Conc. of CPD B mg/ml Lyo.: not necessarily maximum value; for Conc. of CPD B mg/ml Cryst.: not necessarily maximum value except for the hydrochloride; for Conc. of CPD B mg/ml Lyo.: lyophilized solid

| Structure (SMILES) | Conc. of CPD A mg/ml Cryst. [mg/mL] | Conc. of CPD B mg/ml Cryst. [mg/mL] | Conc. of CPD B mg/ml Lyo. [mg/mL] |
| --- | --- | --- | --- |
| CCn1cc(C(=O)O)c(=O)c2cc(F)c(N3CCNCC3)cc21 [A D-Gluconic] | 246 |  |  |
| CCn1cc(C(=O)O)c(=O)c2cc(F)c(N3CCNCC3)nc21 [B Hydrochloric] |  | 23.2 |  |
| CCn1cc(C(=O)O)c(=O)c2cc(F)c(N3CCNCC3)nc21 [B Methane Sulphonic] |  | 180 |  |
| CCn1cc(C(=O)O)c(=O)c2cc(F)c(N3CCNCC3)cc21 [A Lactic] | 183 |  |  |
| CCn1cc(C(=O)O)c(=O)c2cc(F)c(N3CCNCC3)cc21 [A L-Aspartic] | 183 |  |  |
| CCn1cc(C(=O)O)c(=O)c2cc(F)c(N3CCNCC3)nc21 [B Isethionic] |  | 183 | 256 |
| CCn1cc(C(=O)O)c(=O)c2cc(F)c(N3CCNCC3)cc21 [A L-Glutamic] | 183 |  |  |
| CCn1cc(C(=O)O)c(=O)c2cc(F)c(N3CCNCC3)nc21 [B D-Gluconic] |  | 246 | 256 |
| CCn1cc(C(=O)O)c(=O)c2cc(F)c(N3CCNCC3)nc21 [B L-Glutamic] |  | 183 | 246 |
| CCn1cc(C(=O)O)c(=O)c2cc(F)c(N3CCNCC3)nc21 [B L-Aspartic] |  | 183 | 246 |
